Drug screen on melanoma cell lines: apoptosis marker

Compounds and concentrations:
AS-252424, 5 µM: O=C1NC(=O)/C(=C/c2ccc(-c3ccc(F)cc3O)o2)S1
dorsomorphin, 2 µM: c1cc(-c2cnn3cc(-c4ccc(OCCN5CCCCC5)cc4)cnc23)ccn1
VX-702, 2 µM: NC(=O)c1ccc(N(C(N)=O)c2c(F)cccc2F)nc1-c1ccc(F)cc1F
T0901317, 7 µM: O=S(=O)(c1ccccc1)N(CC(F)(F)F)c1ccc(C(O)(C(F)(F)F)C(F)(F)F)cc1
vismodegib, 5 µM: CS(=O)(=O)c1ccc(C(=O)Nc2ccc(Cl)c(-c3ccccn3)c2)c(Cl)c1
cediranib, 2 µM: COc1cc2c(Oc3ccc4[nH]c(C)cc4c3F)ncnc2cc1OCCCN1CCCC1
embelin, 6 µM: CCCCCCCCCCCC1=C(O)C(=O)C=C(O)C1=O
BI-78D3, 1 µM: O=c1[nH]nc(Sc2ncc([N+](=O)[O-])s2)n1-c1ccc2c(c1)OCCO2
MK-2206, 2 µM: NC1(c2ccc(-c3nc4ccn5c(=O)[nH]nc5c4cc3-c3ccccc3)cc2)CCC1

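Human melanoma cell lines in 1,536-well plates were treated with two drugs together for 72 h, then fixed, stained and imaged. Values are the share of nuclei positive for cleaved PARP as a percentage of the same share in the DMSO control: 100 is the control level, higher means more apoptosis. Every drug was used at one fixed concentration, the higher of two screened. These are primary screening values without error estimates. Basal and induced levels differ widely between cell lines.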 Only some of the drugs and lines screened are listed, without regard to their results.

Combination: T0901317 + VX-702
COLO 792: 77.3
MEL-HO: 37.9
LOX IMVI: 93.3
WM1716: 26.6

Combination: cediranib + MK-2206
COLO 792: 66.2
MEL-HO: 131
LOX IMVI: 137
WM1716: 97.1

Combination: dorsomorphin + BI-78D3
COLO 792: 22.5
MEL-HO: 184
LOX IMVI: 102
WM1716: 106

Combination: dorsomorphin + vismodegib
COLO 792: 125
MEL-HO: 186
LOX IMVI: 52.1
WM1716: 97.5

Combination: embelin + BI-78D3
COLO 792: 136
MEL-HO: 121
LOX IMVI: 130
WM1716: 125

Combination: cediranib + BI-78D3
COLO 792: 87.5
MEL-HO: 59.0
LOX IMVI: 119
WM1716: 15.1

Combination: cediranib + AS-252424
COLO 792: 162
MEL-HO: 414
LOX IMVI: 122
WM1716: 54.0

Combination: T0901317 + BI-78D3
COLO 792: 166
MEL-HO: 171
LOX IMVI: 98.2
WM1716: 37.2

Combination: AS-252424 + BI-78D3
COLO 792: 35.9
MEL-HO: 547
LOX IMVI: 106
WM1716: 117

Combination: VX-702 + cediranib
COLO 792: 89.9
MEL-HO: 73.8
LOX IMVI: 76.7
WM1716: 130

Combination: AS-252424 + MK-2206
COLO 792: 278
MEL-HO: 264
LOX IMVI: 113
WM1716: 69.7

Combination: embelin + AS-252424
COLO 792: 191
MEL-HO: 183
LOX IMVI: 77.5
WM1716: 106

Combination: MK-2206 + T0901317
COLO 792: 118
MEL-HO: 45.3
LOX IMVI: 207
WM1716: 153

Combination: cediranib + dorsomorphin
COLO 792: 206
MEL-HO: 115
LOX IMVI: 87.0
WM1716: 117

Combination: vismodegib + T0901317
COLO 792: 77.6
MEL-HO: 171
LOX IMVI: 104
WM1716: 92.5

Combination: cediranib + vismodegib
COLO 792: 110
MEL-HO: 105
LOX IMVI: 103
WM1716: 10.6

Combination: embelin + dorsomorphin
COLO 792: 127
MEL-HO: 67.4
LOX IMVI: 118
WM1716: 103

Combination: VX-702 + BI-78D3
COLO 792: 99.7
MEL-HO: 84.8
LOX IMVI: 35.2
WM1716: 29.6

Combination: vismodegib + VX-702
COLO 792: 78.6
MEL-HO: 87.1
LOX IMVI: 99.2
WM1716: 105

Combination: MK-2206 + vismodegib
COLO 792: 121
MEL-HO: 50.2
LOX IMVI: 185
WM1716: 77.8

Combination: MK-2206 + VX-702
COLO 792: 187
MEL-HO: 42.8
LOX IMVI: 126
WM1716: 24.9

Combination: BI-78D3 + MK-2206
COLO 792: 90.4
MEL-HO: 143
LOX IMVI: 120
WM1716: 82.7

Combination: T0901317 + AS-252424
COLO 792: 202
MEL-HO: 139
LOX IMVI: 63.9
WM1716: 17.9

Combination: dorsomorphin + T0901317
COLO 792: 173
MEL-HO: 65.2
LOX IMVI: 71.5
WM1716: 220

Combination: AS-252424 + vismodegib
COLO 792: 107
MEL-HO: 144
LOX IMVI: 83.9
WM1716: 154

Combination: BI-78D3 + vismodegib
COLO 792: 83.1
MEL-HO: 216
LOX IMVI: 124
WM1716: 70.4

Combination: VX-702 + embelin
COLO 792: 88.1
MEL-HO: 188
LOX IMVI: 69.9
WM1716: 262

Combination: dorsomorphin + AS-252424
COLO 792: 131
MEL-HO: 236
LOX IMVI: 66.7
WM1716: 13.4

Combination: embelin + vismodegib
COLO 792: 70.2
MEL-HO: 255
LOX IMVI: 135
WM1716: 130

Combination: embelin + T0901317
COLO 792: 177
MEL-HO: 128
LOX IMVI: 104
WM1716: 25.0

Combination: embelin + cediranib
COLO 792: 89.6
MEL-HO: 224
LOX IMVI: 60.6
WM1716: 82.0

Combination: dorsomorphin + MK-2206
COLO 792: 422
MEL-HO: 323
LOX IMVI: 143
WM1716: 58.0

Combination: MK-2206 + embelin
COLO 792: 249
MEL-HO: 279
LOX IMVI: 131
WM1716: 121

Combination: AS-252424 + VX-702
COLO 792: 136
MEL-HO: 135
LOX IMVI: 119
WM1716: 93.9

Combination: cediranib + T0901317
COLO 792: 53.1
MEL-HO: 24.5
LOX IMVI: 72.0
WM1716: 144

Combination: VX-702 + dorsomorphin
COLO 792: 16.1
MEL-HO: 220
LOX IMVI: 109
WM1716: 64.6

From a melanoma drug combination screen (doi:10.1371/journal.pone.0140310); values rounded.